Patent publication US11150255B2, “Additive channels” (Emulate Inc., priority 2016, dated 2021)

System: re-calcified human blood effluent
Test: On-chip anticoagulation of outflowing blood through the anticoagulant port
Conditions: sodium citrate introduced through the anticoagulant port vs none

## O=C(O)CC(O)(CC(=O)O)C(=O)O [sodium citrate]
  state of blood collected from the effluent: allows samples to flow freely; also recorded: soluble (not clotted) blood

Entries after “also recorded” stand apart in the source; their conditions may differ. Counter-ions that a name gives are not always drawn.
